Reference: the supplement of paper PMC12578635
The other results are listed elsewhere or left out. Repeats are few or missing, and single values can be far off.

The molecules below were run on RAW 264.7 macrophages infected with S. aureus JE2-lux (assay: host macrophage viability (CellTiter-Fluor) relative to DMSO vehicle; higher = more viable host cells). Conditions: 10 µM; treatment time 4 h; gentamicin 50 µg/ml.
`COc1cc(OC)c(NC(=O)N2CCC(n3cnc4cccnc43)CC2)cc1Cl` gave a host macrophage viability of 114%.
Molecule `O=S(=O)(Nc1cccc(-c2ccc(N3CCCC3)nn2)c1)c1cccnc1` has a host macrophage viability of 127%.
With `CS(=O)(=O)c1ccc(CC(=O)Nc2ncc(S(=O)(=O)c3ccc([N+](=O)[O-])cc3)s2)cc1` the host macrophage viability was 108%.
`O=C(NCc1nnnn1-c1ccc(Cl)cc1)c1ccc(-c2ccccc2)cc1` was tested, and the host macrophage viability was 130%.
With `C=CCn1c(Sc2nc(C)cs2)nc2c1c(=O)[nH]c(=O)n2C` the host macrophage viability was 121%.
`O=C(NCCS(=O)(=O)N1CCCCC1)c1ccccc1` showed a host macrophage viability of 118%.
Molecule `Cc1ccc(C(=O)Nc2c(C#N)[nH]c3sc4c(c23)CCCC4)cc1` has a host macrophage viability of 110%.
`CC(Sc1nnc2c(n1)[nH]c1ccccc12)C(=O)NC(c1ccccc1)c1ccccc1` (stereo unspecified) showed a host macrophage viability of 118%.
`N#Cc1c(NC(=O)CS(=O)(=O)c2ccccc2)sc2c1CCCCC2` gave a host macrophage viability of 113%.
Work on `O=C(CSc1ncccn1)Nc1ccc(C(=O)N2CCOCC2)cc1` yielded a host macrophage viability of 121%.
`N#Cc1c(NC(=O)CSc2nnc3c(n2)-c2cccc4cccc-3c24)sc2c1CCCC2` gave a host macrophage viability of 105%.
`O=C(CCc1nnc2n(Cc3ccc(Cl)cc3)c(=O)c3ccccc3n12)NCc1cccnc1` showed a host macrophage viability of 133%.
Work on `CCOc1ccc(-n2c(-c3ccccc3)cn3c4c(=O)n(CC(N)=O)c(=O)n(C)c4nc23)cc1` yielded a host macrophage viability of 122%.
`COc1cccc(Cn2c(C3CC3)nc3ccc(NC(=O)c4ccncc4)cc3c2=O)c1` was tested, and the host macrophage viability was 97.6%.
In the case of `O=C(CN1C(=O)/C(=C2\NC(=S)NC2=O)c2ccccc21)Nc1cccc(Cl)c1`, the host macrophage viability is reported as 117%.
`O=C(CC1CCN(C(=O)c2cc3ccccc3[nH]2)CC1)NCc1ccc2c(c1)OCO2` was tested, and the host macrophage viability was 105%.
Molecule `CCc1ccc2c(c1)[C@H]1OCC[C@H]1C(c1ccc(C(=O)O)cc1)N2` (stereo partly specified) has a host macrophage viability of 135%.
`C=CCc1cccc2cc(C(=O)Nc3cc(C)ccc3C)c(=O)oc12` gave a host macrophage viability of 122%.
With `O=c1[nH]c2cc3ccccc3c(=O)n2c2sc3c(c12)CCCC3` the host macrophage viability was 138%.
`CC(=O)NCCNc1nc2c(c(=O)n(C)c(=O)n2C)n1CC(=O)Nc1ccccc1C` showed a host macrophage viability of 99.8%.
With `COCCNC(=O)C1c2ccccc2C(=O)N1Cc1ccc(F)cc1` (stereo unspecified) the host macrophage viability was 105%.
`CC(Cc1cccs1)NC(=O)c1cnn(-c2ccc(F)cc2)c1` (stereo unspecified) was tested, and the host macrophage viability was 106%.
For `O=C(Nc1nc2c(s1)COc1ccccc1-2)C1COc2ccccc2O1` (stereo unspecified), the host macrophage viability was 112%.
`O=C(/C=C\c1ccc([N+](=O)[O-])cc1)NC1CC(=O)N(c2ccccc2)C1` (stereo unspecified) gave a host macrophage viability of 123%.
Molecule `CSc1ncc(C(=O)Nc2ccc(C)c(C)c2)c(=O)n1C` has a host macrophage viability of 119%.
`CCOC(=O)CNC(=O)CS(=O)(=O)c1cn(CC(=O)N2CCCCCC2)c2ccccc12` gave a host macrophage viability of 113%.
`Cc1ccc(OCCCC(=O)Nc2sc3c(c2C(N)=O)CCC(C)C3)c(C)c1` (stereo unspecified) was tested, and the host macrophage viability was 113%.
`CCc1ccc(S(=O)(=O)c2nnn3c2nc(N2CCC(C(N)=O)CC2)c2cc(Cl)ccc23)cc1` showed a host macrophage viability of 132%.
For `CC(=O)c1cccc(Nc2nc(Nc3ccc(F)c(Cl)c3)nc(N3CCOCC3)n2)c1`, the host macrophage viability was 123%.
`CC(=O)c1ccc(NC(=O)c2sc3nc(C)cc(C)c3c2N)cc1` showed a host macrophage viability of 137%.
With `Cc1cc(Cl)cc2sc(N(Cc3cccnc3)C(=O)CN3C(=O)CCC3=O)nc12` the host macrophage viability was 102%.
For `CCCC(=O)Nc1ccc(NC(=O)c2ccncc2)cn1`, the host macrophage viability was 110%.
In the case of `COc1ccc(NC(=O)c2cnc(SCC(=O)NCc3ccc4c(c3)OCO4)n(C)c2=O)cc1`, the host macrophage viability is reported as 116%.
Molecule `Cc1cccn2c(=O)c(/C=C(\C#N)C(=O)NC3CCCC3)c(Oc3ccccc3F)nc12` has a host macrophage viability of 114%.
`CCc1ccc(C2NC(=O)NC3=C2C(=O)CCC3)cc1` (stereo unspecified) gave a host macrophage viability of 110%.
`COc1cc(Nc2ncnc3c(-c4ccccc4)noc23)cc(OC)c1` showed a host macrophage viability of 96.5%.
`Cc1noc2ncnc(NCCN(C)C3CCCCC3)c12` was tested, and the host macrophage viability was 127%.
`CN(Cc1ccccc1)S(=O)(=O)c1ccc(C(=O)Nc2cc(C(F)(F)F)ccc2Cl)cc1` gave a host macrophage viability of 127%.
In the case of `O=C(NCc1ccc(F)cc1)C1CCN(c2ccc3nnc(-c4ccccc4Cl)n3n2)CC1`, the host macrophage viability is reported as 127%.
Molecule `COc1ccc(C)cc1NC(=O)N1CCC(c2nnc(C(=O)Nc3cccc(F)c3)s2)CC1` has a host macrophage viability of 82.2%.
`CCCCOc1ccc(C(=O)CSc2nc3c([nH]2)c(=O)n(C)c(=O)n3C)cc1` gave a host macrophage viability of 121%.
Work on `CCOC(=O)c1c(NC(=O)c2ccc(N(C)C)cc2)sc2c1CC(C)(C)NC2(C)C` yielded a host macrophage viability of 140%.
`COc1cccc(NC(=O)NNC(=O)c2ccc3c(c2)NC(=O)C(C)(C)O3)c1` showed a host macrophage viability of 102%.
Molecule `COc1ccccc1CNS(=O)(=O)c1cc(-c2ccno2)oc1C` has a host macrophage viability of 113%.
Work on `CCOC(=O)c1cc(NC(=O)CSc2nnc3cc(C)c4ccccc4n23)cc(C(=O)OCC)c1` yielded a host macrophage viability of 118%.
Work on `C=CCNC(CC(=O)Nc1ccc(O)cc1C)C(=O)O` (stereo unspecified) yielded a host macrophage viability of 125%.
With `O=C(NCc1c(F)cccc1F)C(=O)Nc1cc(F)ccc1F` the host macrophage viability was 93.6%.
`O=C(N1CCc2nc(N3CCCC3)[nH]c(=O)c2C1)C1(c2ccc(Cl)cc2)CCC1` showed a host macrophage viability of 122%.
`COc1ccc(NS(=O)(=O)c2cn(C)nc2C)cc1NC(=O)CN1CCCC1` gave a host macrophage viability of 109%.
`Cc1ccc(N(C(=O)c2csnn2)C(C(=O)NC(C)(C)C)c2ccncc2)cc1C` (stereo unspecified) was tested, and the host macrophage viability was 100%.
In the case of `NS(=O)(=O)c1ccc(NC(=O)CN2C(=O)SC(=C3CCCCC3)C2=O)cc1`, the host macrophage viability is reported as 134%.
